{"source": "PubChem BioAssay AID686937 (Drosophila RNAi Screening Center, 2013)", "aim": "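Knock-downs that reduce output of a secreted reporter enzyme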 (primary screen)", "cells": "Drosophila S2 cells expressing secreted horseradish peroxidase", "knock-down reagent": "long dsRNA against Drosophila genes", "timing": "about 5.5 days (5 days dsRNA, then 12 h reporter induction)", "challenge": "reporter expression induced after 5 days of dsRNA, read 12 h later; inducer not stated", "read-out": "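After 5 days of dsRNA and 12 h of reporter induction, medium peroxidase read by chemiluminescence and scored as per-plate z-score; higher values mean more reporter released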", "scale": "z-score: higher = more reporter secreted into medium", "note": "In all, the deposit lists about 23,000 reagents; below is a random part of those that have a named target and a result. 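Reduced-secretion tags in replicate 1 do not always agree with the z-scores; no criterion for assigning the tags was given.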 Further read-outs or replicates are left out here. Not stated in the record: the amount of reagent."}
{"gene":"Wdr37 (WD repeat domain 37)","amplicon":"DRSC14500","z-score, replicate 1":0.1}
{"gene":"TpnC4 (Troponin C isoform 4)","amplicon":"DRSC04856","z-score, replicate 1":-0.11}
{"gene":"Cubn (Cubilin)","amplicon":"DRSC18256","z-score, replicate 1":0.22}
{"gene":"eIF5 (eukaryotic translation initiation factor 5)","amplicon":"DRSC20165","z-score, replicate 1":-1.18}
{"gene":"CG43861","amplicon":"DRSC02170","z-score, replicate 1":0.1}
{"gene":"CG43861","amplicon":"DRSC02308","z-score, replicate 1":0.02}
{"gene":"CG34429","amplicon":"DRSC10120","z-score, replicate 1":0.26}
{"gene":"Med (Medea)","amplicon":"DRSC16737","z-score, replicate 1":-1.55,"phenotype, replicate 1":"reduced secretion"}

Sorted by “z-score, replicate 1” (descending): some entries from above
{"gene":"Cubn (Cubilin)","amplicon":"DRSC18256","z-score, replicate 1":0.22}
{"gene":"eIF5 (eukaryotic translation initiation factor 5)","amplicon":"DRSC20165","z-score, replicate 1":-1.18}

The list goes on.
{"gene":"YME1L (YME1 like ATPase)","amplicon":"DRSC04378","z-score, replicate 1":-0.1}
{"gene":"Cpr62Bb (Cuticular protein 62Bb)","amplicon":"DRSC08404","z-score, replicate 1":0.23}
{"gene":"HGTX","amplicon":"DRSC09319","z-score, replicate 1":0.45}
{"gene":"HGTX","amplicon":"DRSC11181","z-score, replicate 1":0.41}
{"gene":"c11.1","amplicon":"DRSC18749","z-score, replicate 1":0.43}
{"gene":"CG9263","amplicon":"DRSC03176","z-score, replicate 1":0.48}
{"gene":"enc (encore)","amplicon":"DRSC08716","z-score, replicate 1":0.2}
{"gene":"ZC3H3","amplicon":"DRSC10696","z-score, replicate 1":-4.84,"phenotype, replicate 1":"reduced secretion"}
